Measurements reported in patent publication US7666843B2, “Methods and compositions for treatment of neurological disorder” (Children's Medical Center Corporation, priority 2002, dated 2010).
“Also recorded” adds a separate entry of the source. At least one compound was matched to its structure with a doubt left.

Columns and labels:
Format in all cases: cell-based
[1] = test system: goldfish retinal ganglion cells; assay: Goldfish retinal ganglion cell culture, axon outgrowth bioassay; conditions: goldfish RGCs, forskolin 10 μM
Protocol: Goldfish retinal ganglion cells are prepared as described in PCT application serial no. PCT/US98/03001, the contents of which are incorporated herein by reference, and contacted with a hexose derivative such as mannose. The ability of the hexose derivative to stimulate axonal outgrowth from the goldfish retinal ganglion cells is monitored as described in PCT application serial no. PCT/US98/03001.
Goldfish retinal ganglion cell cultures. Mammalian AF-1 was initially characterized in bioassays using dissociated goldfish retinal ganglion cells (RGCs). In brief, Comet variety goldfish (Mt. Parnell Fisheries, PA) were dark-adapted, cooled to 4° C., and killed by cervical transection. Retinas were dissected and dissociated by incubation in papain followed by a series of trituration steps that result in an RGC-enriched cell suspension (Schwartz & Agronoff,; Schwalb et al., 1995). Approximately 500 RGCs per well were plated together with the experimental samples to be tested in defined, serum-free media containing Leibovitz' L15 media (Gibco BRL) plus N1 and N2 supplements (Bottenstein, Saito), antioxidants, and bovine serum albumin as described in detail elsewhere (Schwalb et al., 1995). In each experiment, 4 wells of each sample were distributed in 24-well plates in a blinded fashion so that the person evaluating axon outgrowth was unaware of the type of sample present in each well. Experiments included a positive control (previously validated goldfish AF-1 or inosine) and a negative control (defined media alone), likewise distributed on the plate in quadruplicate in a blinded fashion. After 6 days in culture at 21° C., axon outgrowth, operationally defined as the percent of RGCs that extended an axon≧5 cell diameters in length, was evaluated in approximately 150 consecutively encountered RGCs per well. […] Data are presented as normalized means ± SEM. All experiments were repeated at least 3 times.

[2] = test system: rat retinal ganglion cells; assay: Rat retinal ganglion cell culture, axon outgrowth; conditions: rat RGCs
[3] = test system: rat retinal ganglion cells; assay: Rat retinal ganglion cell culture, cell survival

SMILES: C=C[C@@]1(C)CC(=O)[C@]2(O)[C@@]3(C)[C@@H](O)CCC(C)(C)[C@@H]3[C@H](O)[C@H](OC(C)=O)[C@@]2(C)O1 [forskolin]
- effect on axon growth induced by AF-1 ([1]; 6-TG 20 μM, NBTI 20 μM, Sp-cAMPs 150 μM, Rp-cAMPs 100 μM, H89 5 μM, FIG. 2, 4): non-statistically significant decrease in outgrowth; also recorded: not enhanced; also recorded: reduced the level of outgrowth
- axon growth induced by cAMP-elevating agent on its own ([1]; Sp-cAMPs 150 μM, FIG. 4): Neither forskolin (10 μM) nor Sp-cAMPs (150 μM) induced growth on its own; also recorded: Neither forskolin nor Sp-cAMP-s by itself stimulated axon growth
- effect on glucose-induced axon outgrowth ([1]; glucose 10 μM (50 μM with late fraction), dBcAMP 1 mM, Rp-cAMPs 100 μM, 3-O-MG 100:1, 2-DG 1 mM, MH 10 mM): diminished; also recorded: diminishes the effect of D-glucose
- axon outgrowth, agent by itself ([2]; 3 days, no other factor added, forskolin 5 μM in FIG. 9a): little effect on outgrowth; also recorded: small but significant response; also recorded: somewhat larger effect
- effect on axon growth induced by the low molecular weight vitreous factor (VE<3) ([2]; FIG. 3a): greatly potentiated; also recorded: strongly potentiates
- cell survival (viable RGCs per field) [3]: independent of any changes in cell survival
